Changes are numbered by the printed parent chain. These are yes or no findings as the source states them, for the method shown. Some entries that bind do so weakly or less than the wild type.
Key:
BSA (bovine) [1] = target: BSA (bovine) (UniProt P02769); assay: single-point Fab ELISA, BSA control wells, protein L-HRP [panel A]
[2] = target: T1, cell surface borealin on murine tumor cell lines (CT26, MC38, 4T1) (mouse) (UniProt Q8BHX3); assay: flow cytometry, 4T1 murine mammary carcinoma cells, 200 nM Fab, anti-human F(ab')2-A647 [right]
T1 sequence (single chain, looked up): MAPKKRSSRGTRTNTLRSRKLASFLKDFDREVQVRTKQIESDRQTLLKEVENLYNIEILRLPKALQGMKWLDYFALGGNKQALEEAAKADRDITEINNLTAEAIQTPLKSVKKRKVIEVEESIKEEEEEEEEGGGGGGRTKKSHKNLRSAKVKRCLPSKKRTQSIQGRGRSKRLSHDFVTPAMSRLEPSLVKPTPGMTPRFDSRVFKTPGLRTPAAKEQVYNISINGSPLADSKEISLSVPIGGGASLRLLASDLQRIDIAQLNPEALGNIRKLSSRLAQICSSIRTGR

The chains behind the UniProt entries cited, without tags or fusion partners. Residues count along the entry.
UniProt P02769, residues 25-607: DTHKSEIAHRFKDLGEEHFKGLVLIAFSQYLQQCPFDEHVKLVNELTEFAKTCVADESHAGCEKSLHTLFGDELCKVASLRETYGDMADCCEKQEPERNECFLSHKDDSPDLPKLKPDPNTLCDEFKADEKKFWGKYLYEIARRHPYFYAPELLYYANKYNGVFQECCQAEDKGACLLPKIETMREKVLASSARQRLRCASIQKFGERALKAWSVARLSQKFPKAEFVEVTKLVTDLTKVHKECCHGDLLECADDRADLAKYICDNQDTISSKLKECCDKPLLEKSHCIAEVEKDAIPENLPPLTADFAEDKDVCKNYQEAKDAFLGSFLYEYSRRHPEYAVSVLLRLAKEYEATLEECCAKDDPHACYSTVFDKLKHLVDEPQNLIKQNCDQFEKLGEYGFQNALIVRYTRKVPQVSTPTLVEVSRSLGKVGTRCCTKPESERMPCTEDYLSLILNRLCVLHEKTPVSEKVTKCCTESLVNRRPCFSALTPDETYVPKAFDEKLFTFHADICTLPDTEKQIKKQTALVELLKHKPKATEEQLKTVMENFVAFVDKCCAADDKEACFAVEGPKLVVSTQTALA

[3] = target: T1, cell surface borealin on murine tumor cell lines (CT26, MC38, 4T1) (mouse); assay: flow cytometry, MC38 murine colorectal carcinoma cells, 200 nM Fab, anti-human F(ab')2-A647 [middle]
[4] = substrate: T2, INC-N; assay: Western blot of recombinant CPC domains, Fab as primary reagent, anti-human F(ab')2 IgG-HRP [panel A]
T2 sequence: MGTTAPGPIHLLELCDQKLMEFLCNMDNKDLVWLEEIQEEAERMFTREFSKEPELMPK

[5] = target: T1, cell surface borealin on murine tumor cell lines (CT26, MC38, 4T1) (mouse); assay: flow cytometry, CT26 murine colorectal carcinoma cells, 200 nM Fab, anti-human F(ab')2-A647 [left]
BSA (bovine) [6] = target: BSA (bovine) (UniProt P02769); assay: single-point Fab ELISA, BSA control wells, protein L-HRP [panel B]

B1: BOR-N-48 (Fab, V domains shown)
VH: EVQLVESGGGLVQPGGSLRLSCAASGFNFSYSSIHWVRQAPGKGLEWVASIYPYSGSTYYADSVKGRFTISADTSKNTAYLQMNSLRAEDTAVYYCARKQVSGWWWYYGFDYWGQGTLVTVSS
VL: DIQMTQSPSSLSASVGDRVTITCRASQSVSSAVAWYQQKPGKAPKLLIYSASSLYSGVPSRFSGSRSGTDFTLTISSLQPEDFATYYCQQSYWWPITFGQGTKVEIKR
Question: How did the binding (BSA (bovine) [1]) turn out when B1 was run?
Answer: no binding (tested: 200 nM)

Question: And the binding [2]?
Answer: binds

Question: What about the binding [3] of the same binder?
Answer: binds

Question: What about the binding [4] of the same binder?
Answer: no binding (tested: 5-10 ug/ml (the text prints 'lg/ml'))

Question: What about the binding [5] of the same binder?
Answer: binds

B2: BOR-C-56 (Fab, V domains shown)
VH: EVQLVESGGGLVQPGGSLRLSCAASGFNISSSSIHWVRQAPGKGLEWVAYISSYSGSTYYADSVKGRFTISADTSKNTAYLQMNSLRAEDTAVYYCARYYHSPLWYYSYSGMDYWGQGTLVTVSS
VL: DIQMTQSPSSLSASVGDRVTITCRASQSVSSAVAWYQQKPGKAPKLLIYSASSLYSGVPSRFSGSRSGTDFTLTISSLQPEDFATYYCQQDYSWSPITFGQGTKVEIKR
Question: B2 was tested. Which binding (BSA (bovine) [6]) did it give?
Answer: no binding (tested: 200 nM)

B3: BOR-C-64 (Fab, V domains shown)
VH: EVQLVESGGGLVQPGGSLRLSCAASGFNVYYSSIHWVRQAPGKGLEWVASISSYYGSTYYADSVKGRFTISADTSKNTAYLQMNSLRAEDTAVYYCARWKWVAMDYWGQGTLVTVSS
VL: B1 VL with S91D, Y92L, W93F, W94M
Question: With B3 as the binder, how does the binding (BSA (bovine) [6]) read?
Answer: no binding (tested: 200 nM)

B4: BOR-C-57 (Fab, V domains shown)
VH: EVQLVESGGGLVQPGGSLRLSCAASGFNISSSSIHWVRQAPGKGLEWVASISSYYSYTYYADSVKGRFTISADTSKNTAYLQMNSLRAEDTAVYYCARGAWYGYLGYYAYYYYALDYWGQGTLVTVSS
VL: B2 VL with D91M, Y92G, S93Y, W94E, S95T, P96L
Question: With B4 as the binder, how does the binding (BSA (bovine) [6]) read?
Answer: no binding (tested: 200 nM)

B5: BOR-C-58 (Fab, V domains shown)
VH: EVQLVESGGGLVQPGGSLRLSCAASGFNVSSYSIHWVRQAPGKGLEWVASISPYYGYTSYADSVKGRFTISADTSKNTAYLQMNSLRAEDTAVYYCARHYYYGFSWFSSGYAMDYWGQGTLVTVSS
VL: B1 VL with S91G, Y92S, W93S, W94S
Question: B5 was tested. Which binding (BSA (bovine) [6]) did it give?
Answer: no binding (tested: 200 nM)

B6: BOR-N-49 (Fab, V domains shown)
VH: EVQLVESGGGLVQPGGSLRLSCAASGFNVSSYSIHWVRQAPGKGLEWVASIYSSSSSTYYADSVKGRFTISADTSKNTAYLQMNSLRAEDTAVYYCARRYYHYRYPLFWGWYGMDYWGQGTLVTVSS
VL: B1 VL with Y92F
Question: For B6, which binding (BSA (bovine) [1]) is on record?
Answer: no binding (tested: 200 nM)

B7: BOR-N-51 (Fab, V domains shown)
VH: EVQLVESGGGLVQPGGSLRLSCAASGFNVYSYSIHWVRQAPGKGLEWVASIYSSYSYTSYADSVKGRFTISADTSKNTAYLQMNSLRAEDTAVYYCARKYHFKPTYWGAMDYWGQGTLVTVSS
VL: B2 VL with D91S, Y92S, S93L, W94Y, S95Y, I97L
Question: B7 was tested. Which binding (BSA (bovine) [1]) did it give?
Answer: no binding (tested: 200 nM)

B8: BOR-N-65 (Fab, V domains shown)
VH: EVQLVESGGGLVQPGGSLRLSCAASGFNFSSSSIHWVRQAPGKGLEWVASISSSSGSTSYADSVKGRFTISADTSKNTAYLQMNSLRAEDTAVYYCARESSQTKKYWYWVVQWYTAMDYWGQGTLVTVSS
VL: B1 VL with S91Y, Y92S, W93Q, P95L
Question: B8 was tested. Which binding (BSA (bovine) [1]) did it give?
Answer: no binding (tested: 200 nM)

— US20250127814A1
